Laboratory results: PubChem BioAssay AID1259254 (NCATS, 2017)
In all, the deposit lists about 59,000 reagents; below is a random part of them. About 1,550 of all reagents (2.6%) count as active. 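G2 share is only a proxy for re-replication; each gene was hit by three separate siRNAs, and active genes were retested.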 The numbers tell different reagents against one gene apart. Not all columns of the deposit are shown. Not given: the amount of reagent.

Screen: 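Finding genes that stop cells copying their DNA twice in one cycle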 (primary screen)
Cells: human HCT116 colorectal cancer cells
Reagents: single siRNA against human genes
Time to read-out: 3 days
Read-out: 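Imaged Hoechst DNA stain sorts each cell into a cycle phase by DNA amount; per plate, G2 fraction set to 0% for non-targeting and 100% for GMNN siRNA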
Reading the numbers: G2 robust z-score: higher = more G2 cells, more excess DNA replication
Hit rule: 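Active siRNAs have a G2 robust z of 5 or more median absolute deviations over the median, which in these data means about 38% or higher of GMNN control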

With DNAAF8 #1, how do the results read?
G2 robust z-score: 0.212; activity call: inactive

What did the screen give for DNAAF8 #2?
G2 robust z-score: 0.199; activity call: inactive

For DNAAF8 #3, how do the results read?
G2 robust z-score: 0.566; activity call: inactive

For DONSON #1, what was measured?
G2 robust z-score: 2.18; activity call: inactive

What did the screen give for DONSON #2?
G2 robust z-score: 8.09; activity call: active

Which result is listed for DONSON #3?
G2 robust z-score: 4.35; activity call: inactive

What did the screen give for H1-1 #1?
G2 robust z-score: -0.544; activity call: inactive

With H1-1 #2, what does the deposit list?
G2 robust z-score: -0.84; activity call: inactive

What is on record for H1-1 #3?
G2 robust z-score: 1.18; activity call: inactive

Which result is listed for NAP1L5 #1?
G2 robust z-score: -0.382; activity call: inactive

For NAP1L5 #2, what was measured?
G2 robust z-score: 0.578; activity call: inactive

Which result is listed for NAP1L5 #3?
G2 robust z-score: -0.369; activity call: inactive

With NR2C2 #1, what does the deposit list?
G2 robust z-score: 0.579; activity call: inactive

For NR2C2 #2, what was measured?
G2 robust z-score: -0.556; activity call: inactive

What did the screen give for NR2C2 #3?
G2 robust z-score: 3.12; activity call: inactive

What is on record for ODF1 #1?
G2 robust z-score: -0.477; activity call: inactive

How did the screen score ODF1 #2?
G2 robust z-score: 0.542; activity call: inactive

How did the screen score ODF1 #3?
G2 robust z-score: -0.673; activity call: inactive

What did the screen give for SPATS2 #1?
G2 robust z-score: -0.287; activity call: inactive

What is on record for SPATS2 #2?
G2 robust z-score: -1.36; activity call: inactive

For SPATS2 #3, what does the deposit list?
G2 robust z-score: 0.00173; activity call: inactive

With S100A13 #1, how do the results read?
G2 robust z-score: 0.504; activity call: inactive

For S100A13 #2, what was measured?
G2 robust z-score: 0.225; activity call: inactive

With S100A13 #3, how do the results read?
G2 robust z-score: 1.88; activity call: inactive

For BFAR #1, what was measured?
G2 robust z-score: 2.3; activity call: inactive

How did the screen score BFAR #2?
G2 robust z-score: 2.66; activity call: inactive

What did the screen give for BFAR #3?
G2 robust z-score: -0.735; activity call: inactive

What is on record for SVEP1 #1?
G2 robust z-score: 0.887; activity call: inactive

For SVEP1 #2, how do the results read?
G2 robust z-score: -0.157; activity call: inactive

Which result is listed for SVEP1 #3?
G2 robust z-score: 0.755; activity call: inactive

As entered above.
Result for DONSON #1 under “G2 robust z-score”: 2.18
NAP1L5 #3, activity call = inactive
SPATS2 #2, activity call = inactive
